Measured values from US20070066803A1.
These are yes or no findings as the source states them, for the method shown. In cells and extracts the contact can be indirect. Binding can be weak; no strength is given. Sequences can lack the tags named with a protein.

Assays:
plakoglobin [1] = assay: co-immunoprecipitation with anti-Myc 9E10 or anti-plakoglobin PG5.1, Western blot
plakoglobin [2] = assay: co-immunoprecipitation from cell lysates (MDCK-Tetoff-hECRep1a -Tet), Western blot

- binding (plakoglobin [1]): binds
- binding (plakoglobin [2]): binds
B1: Myc-tagged full-length human hECRep1a (protein, not shown: small tags and cut ends)
chain: MEAFPWAPRSPRRGRAPPPMALVPSARYVSAPGPAHPQPFSSWNDYLGLATLITKAVDGEPRFGCARGGNGGGGSPPSSSSSSCCSPHTGAGPGALGPALGPPDYDEDDDDDSDEPGSRGRYLGSALELRALELCAGPAEAGLLEERFAELSPFAGRAAAVLLGCAPAAAAAATTTSEATPREERAPAWAAEPRLHAASGAAAARLLKPELQVCVFCRNNKEAMALYTTHILKGPDGRVLCPVLRRYTCPLCGASGDNAHTIKYCPLSKVPPPPARPPPRSARDGPPGKKLR
